Measurements taken from PMC11577098.
These are yes or no findings as the source states them, for the method shown. Some binding calls cover weakened binding; strength is not graded here.

Molecular target: adipose triglyceride lipase (ATGL) (mouse (endogenous in 3T3-L1 adipocytes and mouse WAT)) (UniProt Q8BJ56)
Test: SDS-PAGE band of a 4G8 immunoprecipitate with in-gel digestion and MS/MS; proteins precipitated with the 4G8 antibody, separated on SDS gel; 55 kDa and 150 kDa bands cut out, digested with trypsin and analysed by LC-MS/MS

B1: adipose triglyceride lipase (ATGL) (protein, UniProt Q8BJ56 1-486)
chain: MFPRETKWNISFAGCGFLGVYHIGVASCLREHAPFLVANATHIYGASAGALTATALVTGACLGEAGANIIEVSKEARKRFLGPLHPSFNLVKTIRGCLLKTLPADCHERANGRLGISLTRVSDGENVIISHFSSKDELIQANVCSTFIPVYCGLIPPTLQGVRYVDGGISDNLPLYELKNTITVSPFSGESDICPQDSSTNIHELRVTNTSIQFNLRNLYRLSKALFPPEPMVLREMCKQGYRDGLRFLRRNGLLNQPNPLLALPPVVPQEEDAEEAAVVEERAGEEDQLQPYRKDRILEHLPARLNEALLEACVEPKDLMTTLSNMLPVRLATAMMVPYTLPLESAVSFTIRLLEWLPDVPEDIRWMKEQTGSICQYLVMRAKRKLGDHLPSRLSEQVELRRAQSLPSVPLSCATYSEALPNWVRNNLSLGDALAKWEECQRQLLLGLFCTNVAFPPDALRMRAPASPTAADPATPQDPPGLPPC
  binding: binds
